# Where “and” joins values, the source holds several entries; their conditions need not be identical. Equal entries are not always repeated. Structures can show the parent of a compound that is named as a salt. ± gives the standard deviation of the averaged measurements. This is one part of the list. Part of the spread comes from offsets between plates or batches.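 Assay uses culture-activated primary human stellate myofibroblasts; lipid droplet recovery indicates inactivation. Measured: proportion of Hoechst-counted cells over a plate-specific Bodipy cutoff, duplicate wells, DMSO and nortriptyline as per-plate negative and positive controls. A hit scores, control-normalized, above the plate's top-tenth-percentile nortriptyline wells or ranks among its three best wells. Final well concentrations not reported.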
# System: primary human hepatic stellate cells (donor 1)
# Experiment: percent Bodipy-positive cells; higher = more lipid droplet accumulation
# Settings: 48 h
# [1] = library stock concentration: 3.33 mM
# [2] = library stock concentration: 10 mM
# [3] = library stock concentration: 80 uM
# [4] = library stock concentration: 400 uM
# [5] = library stock concentration: 2 mM
# [6] = library stock concentration: 1 mM
structure (smiles),measurement,setting,value
CN(C)CCCCC(=O)Nc1ccc(NC(=S)NC(=O)c2ccc(C(C)(C)C)cc2)cc1 [Tenovin-6],percent Bodipy-positive cells,[1],98.4 ± 1.5%
Cn1cnc2c(F)c(Nc3ccc(Br)cc3Cl)c(C(=O)NOCCO)cc21 [Selumetinib (AZD6244)],percent Bodipy-positive cells,[1],8.12 ± 6.6%
same,percent Bodipy-positive cells,[2],16.7 ± 10%
Cn1cnc2c(F)c(Nc3ccc(Br)cc3Cl)c(C(=O)NOCCO)cc21,percent Bodipy-positive cells,[3],12.2 ± 8.1%
same,percent Bodipy-positive cells,[4],11.4% and 12.6%
same,percent Bodipy-positive cells,[5],6.82% and 19.3%
Nc1nc(N)c2nc(-c3cccc(O)c3)c(-c3cccc(O)c3)nc2n1,percent Bodipy-positive cells,[1],7.07 ± 3.9%
same,percent Bodipy-positive cells,[2],13.2 ± 1.1%
CCCCCCCCCCCCCCCC(=O)N[C@H](CN1CCOCC1)[C@H](O)c1ccccc1 (racemic),percent Bodipy-positive cells,[6],8.13 ± 3.6%
NC(=O)c1ccccc1 [Benzamide],percent Bodipy-positive cells,[2],38.7 ± 10%
CC(C)=CCC/C(C)=C/CC/C(C)=C/CC[C@]1(C)CCc2cc(O)cc(C)c2O1 [.delta.-Tocotrienol],percent Bodipy-positive cells,[6],9.74 ± 5.2%
NC(N)=NC(N)=Nc1ccccc1 [1-Phenylbiguanide],percent Bodipy-positive cells,[2],18.1 ± 5%
CC(C)=CCCC(C)(OC1OC(COC2OCC(O)C(O)C2O)C(O)C(O)C1O)C1CCC2(C)C1C(O)CC1C3(C)CCC(OC4OC(CO)C(O)C(O)C4O)C(C)(C)C3CCC12C (centres undefined) [Gynostemma Extract],percent Bodipy-positive cells,[1],5.73 ± 1.2%
same,percent Bodipy-positive cells,[2],18.3 ± 3.4%
Nc1ncnc2c1c(-c1cccc(OCc3ccccc3)c1)cn2[C@H]1C[C@@H](CN2CCC2)C1,percent Bodipy-positive cells,[1],80.4 ± 13%
same,percent Bodipy-positive cells,[2],96.5 ± 1.2%
NCCc1ccc(O)c(O)c1 [Intropin],percent Bodipy-positive cells,[2],29.6 ± 0.4%
NCCc1ccc(O)c(O)c1 [Dopamine HCl],percent Bodipy-positive cells,[1],4.89 ± 1.1%
same,percent Bodipy-positive cells,[2],9.16 ± 1%
C[C@H](Cc1ccc(O)c(O)c1)[C@@H](C)Cc1ccc(O)c(O)c1,percent Bodipy-positive cells,[2],43.4 ± 5.2%
CCCCCC(O)CCCC(=O)O (centres undefined) [5-hydroxydecanoic acid sodium],percent Bodipy-positive cells,[2],36.07 ± 0.29%
CCCNC(=O)[C@H]1O[C@@H]1C(=O)N[C@H](C(=O)N1CCC[C@H]1C(=O)OC)C(C)CC (some centres undefined),percent Bodipy-positive cells,library stock concentration: 12.6 mM,82.1 ± 0.46%
OC[C@@H](O)CN1CCN(c2ccccc2)CC1 [Levodropropizine],percent Bodipy-positive cells,[1],9.09 ± 0.35%
same,percent Bodipy-positive cells,[2],38.9 ± 22%
N#CC1(c2ccc(NC(=O)c3cccnc3NCc3ccncc3)cc2)CCCC1 [Apatinib],percent Bodipy-positive cells,[1],9.41 ± 0.89%
same,percent Bodipy-positive cells,[2],53.2 ± 5.7%
CCCNC(=O)N1N=C(c2ccc(N)cc2)c2cc3c(cc2C1C)OCO3 (centres undefined),percent Bodipy-positive cells,[2],6.8 ± 4%
COc1cc(N)c(Cl)cc1C(=O)OCCN1CCCCC1,percent Bodipy-positive cells,[2],42.7 ± 4.7%
Cc1c(Nc2ncccc2C(=O)O)cccc1C(F)(F)F [Flunixin meglumine],percent Bodipy-positive cells,,6.35 ± 1.8%
Cc1c(Nc2ncccc2C(=O)O)cccc1C(F)(F)F [Flunixin Meglumin],percent Bodipy-positive cells,[1],7.18 ± 1.2%
same,percent Bodipy-positive cells,[2],13.7 ± 1.1%
CC[C@H](c1ccc(O)cc1)[C@@H](CC)c1ccc(O)cc1 [Hexestrol],percent Bodipy-positive cells,,8.96 ± 3.5%
same,percent Bodipy-positive cells,[1],11.3 ± 2.3%
O=C(Cc1ccccc1)NO [Phenylacetohydroxamic acid],percent Bodipy-positive cells,[2],30.3 ± 6.9%
COc1cc(Nc2ncc(F)c(Nc3ccc4c(n3)NC(=O)C(C)(C)O4)n2)cc(OC)c1OC,percent Bodipy-positive cells,[2],94 ± 3.1%
CC1O[C@H](O[C@]2(O[C@H]3CC[C@@]4(C)C(=CC[C@H]5[C@@H]6C[C@H]7[C@H]([C@H](C)[C@H]8CC[C@H](C)CN87)[C@@]6(C)CC[C@@H]54)C3)C[C@@H](O[C@@H]3OC(CO)[C@@H](O)[C@@H](O)C3O)[C@@H](O)C(CO)O2)C(O)[C@@H](O)[C@H]1O (stereo partly drawn) [Solanine alpha],percent Bodipy-positive cells,,29.7 ± 1.4%
COc1ccc(CNc2nc(N3CCC[C@H]3CO)ncc2C(=O)NCc2ncccn2)cc1Cl [Avanafil],percent Bodipy-positive cells,[1],10.5 ± 1.2%
same,percent Bodipy-positive cells,[2],44.7 ± 4.1%
Nc1ncnc2c1ncn2C1CCCC1 [9-cyclopentyladenine],percent Bodipy-positive cells,[2],48.7 ± 1.7%
CCOC(=O)C1=C(C)NC(C)=C(C(=O)OC)C1c1cccc(Cl)c1Cl (centres undefined) [Felodipine],percent Bodipy-positive cells,[2],94.1 ± 1.6%
C[C@]12CCC(=O)C=C1CC[C@@H]1[C@@H]2[C@@H](O)C[C@@]2(C)[C@H]1CC[C@]2(O)C(=O)COP(=O)(O)O [Hydrocortisone phosphate triethylamine],percent Bodipy-positive cells,library stock concentration: 3.1 mM,2.71 ± 0.11%
O=C1NC(c2cccc([N+](=O)[O-])c2)=CCN1c1ccccc1O [Icilin],percent Bodipy-positive cells,[6],13 ± 1.2%
CC(=O)OCC(=O)[C@@]1(O)CC[C@H]2[C@@H]3CCC4=CC(=O)C=C[C@]4(C)[C@H]3[C@@H](O)C[C@@]21C,percent Bodipy-positive cells,[2],27.2 ± 8.2%
CC(=O)OCC(=O)[C@@]1(O)CC[C@H]2[C@@H]3CCC4=CC(=O)C=C[C@]4(C)[C@H]3[C@@H](O)C[C@@]21C [Prednisolone acetate],percent Bodipy-positive cells,library stock concentration: 5 mM,9.36 ± 0.76%
same,percent Bodipy-positive cells,[2],16.7 ± 0.49%
COc1cc(C(=O)OCCCN2CCCN(CCCOC(=O)c3cc(OC)c(OC)c(OC)c3)CC2)cc(OC)c1OC.Cl.Cl,percent Bodipy-positive cells,[2],93.29 ± 0.21%
CC[C@]1(O)C[C@H]2CN(CCc3c([nH]c4ccccc34)[C@@](C(=O)OC)(c3cc4c(cc3OC)N(C=O)[C@H]3[C@@](O)(C(=O)OC)[C@H](OC(C)=O)[C@]5(CC)C=CCN6CC[C@]43[C@@H]65)C2)C1.O=S(=O)(O)O [Vincristine sulfate],percent Bodipy-positive cells,[2],84.32 ± 0.32%
CN1CCN(C(=O)c2cc3cc(Cl)ccc3[nH]2)CC1,percent Bodipy-positive cells,[1],18.7 ± 1.3%
same,percent Bodipy-positive cells,[2],63.1 ± 14%
COc1ccc(Cl)cc1NC(=O)Nc1cc(C)nc2ccccc12,percent Bodipy-positive cells,[2],98.85 ± 0.83%
"COc1cc(SC)ccc1C(=O)N1CCC(Cc2ccccc2)CC1 [p38 MAP Kinase Inhibitor VI, JX401]",percent Bodipy-positive cells,[1],26.2 ± 6.8%
CC#C[C@]1(O)CC[C@H]2[C@@H]3CCC4=CC(=O)CCC4=C3[C@@H](c3ccc(N(C)C)cc3)C[C@@]21C [Mifepristone],percent Bodipy-positive cells,,20.7 ± 4.1%
same,percent Bodipy-positive cells,[6],5.33 ± 1.1%
same,percent Bodipy-positive cells,[1],7.69 ± 0.82%
same,percent Bodipy-positive cells,library stock concentration: 4.7 mM,9.77 ± 5.4%
CC#C[C@]1(O)CC[C@H]2[C@@H]3CCC4=CC(=O)CCC4=C3[C@@H](c3ccc(N(C)C)cc3)C[C@@]21C,percent Bodipy-positive cells,[2],8.81 ± 1.5%
CCc1cccc(CC)c1NC(=O)N1Cc2[nH]nc(NC(=O)c3ccc(N4CCN(C)CC4)cc3)c2C1,percent Bodipy-positive cells,[1],30 ± 3.2%
same,percent Bodipy-positive cells,[2],73.5 ± 5.6%
CC[C@@H]1C(=O)N(C)c2cnc(Nc3ccc(C(=O)N[C@H]4CC[C@H](N5CCN(CC6CC6)CC5)CC4)cc3OC)nc2N1C(C)C [Volasertib],percent Bodipy-positive cells,[3],15.3 ± 0.69%
same,percent Bodipy-positive cells,[4],27.1 ± 0.44%
same,percent Bodipy-positive cells,[5],35.9 ± 1.2%
COC(=O)N[C@@H](C)CNc1nccc(-c2cn(C(C)C)nc2-c2cc(Cl)cc(NS(C)(=O)=O)c2F)n1,percent Bodipy-positive cells,[1],34.7 ± 16%
same,percent Bodipy-positive cells,[2],79.6 ± 7.1%
CS(=O)(=O)O.N=C(NC(=O)c1nc(Cl)c(N)nc1N)Nc1ccccc1 [Phenamil methanesulfonate],percent Bodipy-positive cells,[2],99.5 ± 0.28%

# Retrieved one by one from the entries so far (five):
structure (smiles),measurement,setting,value
OC[C@@H](O)CN1CCN(c2ccccc2)CC1 [Levodropropizine],percent Bodipy-positive cells,[2],38.9 ± 22%
"COc1cc(SC)ccc1C(=O)N1CCC(Cc2ccccc2)CC1 [p38 MAP Kinase Inhibitor VI, JX401]",percent Bodipy-positive cells,[1],26.2 ± 6.8%
O=C(Cc1ccccc1)NO [Phenylacetohydroxamic acid],percent Bodipy-positive cells,[2],30.3 ± 6.9%
CCc1cccc(CC)c1NC(=O)N1Cc2[nH]nc(NC(=O)c3ccc(N4CCN(C)CC4)cc3)c2C1,percent Bodipy-positive cells,[1],30 ± 3.2%
CC(C)=CCC/C(C)=C/CC/C(C)=C/CC[C@]1(C)CCc2cc(O)cc(C)c2O1 [.delta.-Tocotrienol],percent Bodipy-positive cells,[6],9.74 ± 5.2%

# Source: the supplement of paper PMC9135407
